Results are given in words; binding and its absence hold for the method and conditions named. In cells and extracts the contact can be indirect. Some entries that bind do so weakly or less than the wild type.

By UniProt entry, the sequences of proteins in these tests, tags left out. Residues count along the entry.
UniProt Q7L985, residues 28-606: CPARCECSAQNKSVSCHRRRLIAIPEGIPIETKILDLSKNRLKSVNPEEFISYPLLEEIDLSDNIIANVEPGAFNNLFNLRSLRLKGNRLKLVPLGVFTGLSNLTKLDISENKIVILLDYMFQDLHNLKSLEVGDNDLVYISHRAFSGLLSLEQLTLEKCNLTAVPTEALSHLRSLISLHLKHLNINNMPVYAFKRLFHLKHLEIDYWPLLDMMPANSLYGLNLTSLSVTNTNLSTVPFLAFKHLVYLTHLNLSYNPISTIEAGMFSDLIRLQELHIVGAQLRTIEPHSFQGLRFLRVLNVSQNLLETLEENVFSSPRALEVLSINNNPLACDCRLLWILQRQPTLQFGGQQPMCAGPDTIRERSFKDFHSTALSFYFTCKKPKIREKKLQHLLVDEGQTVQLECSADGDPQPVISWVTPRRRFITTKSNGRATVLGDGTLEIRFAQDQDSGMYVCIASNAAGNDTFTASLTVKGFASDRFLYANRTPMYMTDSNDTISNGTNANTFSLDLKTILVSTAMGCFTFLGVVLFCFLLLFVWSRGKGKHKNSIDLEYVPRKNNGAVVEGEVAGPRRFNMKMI

In the test the target is leucine-rich repeat receptor and nogo-interacting protein 2 (LINGO2), fused with Rluc or with YFP (UniProt Q7L985). Briefly: FRET or BRET; HEK-293 cells co-expressing LINGO2-Rluc (donor) and LINGO2-YFP (acceptor); coelenterazine 5 μM; emission ratio 530/480 nm minus donor-only background; basal condition and after 20 min with TFF3(C^57Acm) or TFF3 homodimer. In general terms: In BRET a luciferase serves as donor, and the signal depends on an acceptor being close.

For “leucine-rich repeat receptor and nogo-interacting protein 2 (LINGO2), fused with Rluc or with YFP (from UniProt Q7L985 28-606)”, the binding result was “binds”.

(Values after publication PMC8273887 (Journal of Medicinal Chemistry, 2021).)
